According to US20240336691A1 (PROMETHEUS BIOSCIENCES, published 2024):
Substitutions are numbered along the chain they refer to. Results are given in words; binding and its absence hold for the method and conditions named. Some binding calls cover weakened binding; strength is not graded here.

Target: T1, DR3 receptor on human TF-1 cells (human) (UniProt Q93038)
T1 sequence (looked up): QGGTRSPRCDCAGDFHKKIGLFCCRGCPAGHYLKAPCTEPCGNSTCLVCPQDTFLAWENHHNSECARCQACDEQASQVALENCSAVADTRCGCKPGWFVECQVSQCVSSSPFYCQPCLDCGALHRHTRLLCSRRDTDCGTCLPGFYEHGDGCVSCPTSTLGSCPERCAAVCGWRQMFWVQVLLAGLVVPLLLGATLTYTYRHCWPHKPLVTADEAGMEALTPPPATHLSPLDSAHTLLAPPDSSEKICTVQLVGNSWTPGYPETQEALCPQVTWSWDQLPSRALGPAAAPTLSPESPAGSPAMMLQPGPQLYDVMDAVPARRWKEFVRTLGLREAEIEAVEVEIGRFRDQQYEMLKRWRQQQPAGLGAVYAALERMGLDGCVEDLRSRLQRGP
Test: TF-1 cell caspase activation assay

B1: human recombinant TL1A protein (ligand, UniProt O95150 72-251, looked up)
chain: LKGQEFAPSHQQVYAPLRADGDKPRAHLTVVRQTPTQHFKNQFPALHWEHELGLAFTKNRMNYTNKFLLIPESGDYFIYSQVTFRGMTSECSEIRQAGRPNKPDSITVVITKVTDSYPEPTQLLMGTKSVCEVGSNWFQPIYLGAMFSLQEGDKLMVNVSDISLVDYTKEDKTFFGAFLL
Question: How did the binding turn out when B1 was run?
Answer: binds

B2: cynomolgus monkey recombinant TL1A protein (ligand)
chain: B1 chain with F39L, I78V
Question: Which binding does the source give for B2 here?
Answer: binds
